Test results from patent publication US5547861.
A negative result means that nothing was seen under these conditions. Protein sequences can lack the tags named with them.

Biological target: T1, HincII restriction endonuclease (UniProt P17743)
T1 sequence (looked up, limits assumed): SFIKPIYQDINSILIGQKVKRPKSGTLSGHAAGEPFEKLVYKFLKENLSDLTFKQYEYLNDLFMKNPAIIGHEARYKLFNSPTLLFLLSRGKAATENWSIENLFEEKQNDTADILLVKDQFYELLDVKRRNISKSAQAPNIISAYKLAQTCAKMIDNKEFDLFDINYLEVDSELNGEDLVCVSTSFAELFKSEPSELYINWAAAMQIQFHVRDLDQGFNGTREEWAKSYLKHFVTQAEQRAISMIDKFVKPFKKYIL
Experiment: enzyme reaction in vitro
Details: single-stranded signal primer not cleaved; no cleavage product without target; purified native protein; protein details: New England Biolabs; label: 5'-32P; single-stranded DNA

GTACGTCTATGTCAACATCCGTATGGTGGATAACGTCTTTCA [HincII-site signal primer, single-stranded 42-mer]
activity on this sequence: not active
